Measured values published in the supplement of paper PMC8728848.
This is one part of the list.

Assays:
Assay in all cases: glycan array binding signal (z-score within array); higher = stronger binding
Conditions in all cases: glycan notation: IUPAC condensed, linker removed
[1] = biological target: Neu5Ac(a2-6)Gal(b1-4)GlcNAc(b1-2)Man(a1-3)[Gal(b1-4)GlcNAc(b1-2)Man(a1-6)]Man(b1-4)GlcNAc(b1-4)GlcNAc
Procedure, shortened: (§1)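 The binding signal is a Z-score computed within each array. Data were drawn from 3228 arrays in the Consortium for Functional Glycomics database, restricted to those with a known protein sequence. Scores were averaged over arrays of the same protein sequence at different concentrations or buffers, and over linkers, and negative values can be taken as non-binding.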

[2] = biological target: Neu5Ac(a2-6)Gal(b1-4)GlcNAc(b1-2)Man(a1-3)[GlcNAc(b1-2)Man(a1-6)]Man(b1-4)GlcNAc(b1-4)GlcNAc
Procedure, shortened: as §1

[3] = biological target: Neu5Ac(a2-6)Gal(b1-4)GlcNAc(b1-2)Man(a1-3)[GlcNAc(b1-2)Man(b1-4)GlcNAc(b1-2)Man(a1-6)]Man(b1-4)GlcNAc(b1-4)GlcNAc
Procedure, shortened: as §1

[4] = biological target: Neu5Ac(a2-6)Gal(b1-4)GlcNAc(b1-2)Man(a1-3)[Neu5Ac(a2-6)Gal(b1-4)GlcNAc(b1-2)Man(a1-6)]Man(b1-4)GlcNAc(b1-4)GlcNAc
Procedure, shortened: as §1

[5] = biological target: Neu5Ac(a2-6)Gal(b1-4)GlcNAc(b1-2)Man(a1-6)[Gal(b1-4)GlcNAc(b1-2)Man(a1-3)]Man(b1-4)GlcNAc(b1-4)GlcNAc
Procedure, shortened: as §1

[6] = biological target: Neu5Ac(a2-6)Gal(b1-4)GlcNAc(b1-2)Man(a1-6)[GlcNAc(b1-2)Man(a1-3)]Man(b1-4)GlcNAc(b1-4)GlcNAc
Procedure, shortened: as §1

[7] = biological target: Neu5Ac(a2-6)Gal(b1-4)GlcNAc(b1-3)Gal(b1-4)GlcNAc
Procedure, shortened: as §1

[8] = biological target: Neu5Ac(a2-6)Gal(b1-4)GlcNAc(b1-3)Gal(b1-4)[Fuc(a1-3)]GlcNAc(b1-3)Gal(b1-4)[Fuc(a1-3)]GlcNAc
Procedure, shortened: as §1

[9] = biological target: Neu5Ac(a2-6)Gal(b1-4)GlcNAc6S
Procedure, shortened: as §1

Neu5Ac(a2-6)GalNAc = biological target: Neu5Ac(a2-6)GalNAc
Procedure, shortened: as §1

[10] = biological target: Neu5Ac(a2-6)GalNAc(b1-4)GlcNAc
Procedure, shortened: as §1

Neu5Ac(a2-8)Neu5Ac = biological target: Neu5Ac(a2-8)Neu5Ac
Procedure, shortened: as §1

[11] = biological target: Neu5Ac(a2-8)Neu5Ac(a2-3)Gal(b1-4)Glc
Procedure, shortened: as §1

[12] = biological target: Neu5Ac(a2-8)Neu5Ac(a2-3)[GalNAc(b1-4)]Gal(b1-4)Glc
Procedure, shortened: as §1

[13] = biological target: Neu5Ac(a2-8)Neu5Ac(a2-8)Neu5Ac
Procedure, shortened: as §1

[14] = biological target: Neu5Ac(a2-8)Neu5Ac(a2-8)Neu5Ac(a2-3)Gal(b1-4)Glc
Procedure, shortened: as §1

[15] = biological target: Neu5Ac(a2-8)Neu5Ac(a2-8)Neu5Ac(a2-3)[GalNAc(b1-4)]Gal(b1-4)Glc
Procedure, shortened: as §1

[16] = biological target: Neu5Ac(a2-8)Neu5Ac(a2-8)Neu5Ac(a2-8)Neu5Ac(a2-3)[GalNAc(b1-4)]Gal(b1-4)Glc
Procedure, shortened: as §1

[17] = biological target: Neu5Ac(b2-6)Gal(b1-4)GlcNAc
Procedure, shortened: as §1

Neu5Ac(b2-6)GalNAc = biological target: Neu5Ac(b2-6)GalNAc
Procedure, shortened: as §1

[18] = biological target: Neu5Ac9Ac(a2-6)Gal(b1-4)GlcNAc
Procedure, shortened: as §1

[19] = biological target: Neu5Gc(a2-3)Gal(b1-3)GlcNAc
Procedure, shortened: as §1

[20] = biological target: Neu5Gc(a2-3)Gal(b1-3)[Fuc(a1-4)]GlcNAc
Procedure, shortened: as §1

Neu5Gc(a2-3)Gal(b1-4)Glc = biological target: Neu5Gc(a2-3)Gal(b1-4)Glc
Procedure, shortened: as §1

[21] = biological target: Neu5Gc(a2-3)Gal(b1-4)GlcNAc
Procedure, shortened: as §1

[22] = biological target: Neu5Gc(a2-3)Gal(b1-4)[Fuc(a1-3)]GlcNAc
Procedure, shortened: as §1

[23] = biological target: Neu5Gc(a2-6)Gal(b1-4)GlcNAc
Procedure, shortened: as §1

Neu5Gc(a2-6)GalNAc = biological target: Neu5Gc(a2-6)GalNAc
Procedure, shortened: as §1

[24] = biological target: Neu5Gc(b2-6)Gal(b1-4)GlcNAc
Procedure, shortened: as §1

B1: CLC (Homo sapiens), Q9UBD9 (protein)
chain: MDLRAGDSWGMLACLCTVLWHLPAVPALNRTGDPGPGPSIQKTYDLTRYLEHQLRSLAGTYLNYLGPPFNEPDFNPPRLGAETLPRATVDLEVWRSLNDKLRLTQNYEAYSHLLCYLRGLNRQAATAELRRSLAHFCTSLQGLLGSIAGVMAALGYPLPQPLPGTEPTWTPGPAHSDFLQKMDDFWLLKELQTWLWRSAKDFNRLKKKMQPPAAAVTLHLGAHGF
[1]
  glycan array binding signal (z-score): 0.808
[2]
  glycan array binding signal (z-score): 0.497
[3]
  glycan array binding signal (z-score): -0.823
[4]
  glycan array binding signal (z-score): -0.433
[5]
  glycan array binding signal (z-score): -0.583
[6]
  glycan array binding signal (z-score): -0.629
[7]
  glycan array binding signal (z-score): 0.57
[8]
  glycan array binding signal (z-score): -0.072
[9]
  glycan array binding signal (z-score): -0.346
Neu5Ac(a2-6)GalNAc
  glycan array binding signal (z-score): -0.432
[10]
  glycan array binding signal (z-score): -0.738
Neu5Ac(a2-8)Neu5Ac
  glycan array binding signal (z-score): 0.749
[11]
  glycan array binding signal (z-score): -0.101
[12]
  glycan array binding signal (z-score): -0.628
[13]
  glycan array binding signal (z-score): -0.155
[14]
  glycan array binding signal (z-score): -0.846
[15]
  glycan array binding signal (z-score): -0.035
[16]
  glycan array binding signal (z-score): 0.298
[17]
  glycan array binding signal (z-score): -0.799
Neu5Ac(b2-6)GalNAc
  glycan array binding signal (z-score): -0.297
[18]
  glycan array binding signal (z-score): -0.336
[19]
  glycan array binding signal (z-score): -0.229
[20]
  glycan array binding signal (z-score): -0.279
Neu5Gc(a2-3)Gal(b1-4)Glc
  glycan array binding signal (z-score): 2.45
[21]
  glycan array binding signal (z-score): 0.802
[22]
  glycan array binding signal (z-score): -0.195
[23]
  glycan array binding signal (z-score): -0.822
Neu5Gc(a2-6)GalNAc
  glycan array binding signal (z-score): -0.089
[24]
  glycan array binding signal (z-score): 0.062
